The supplement of paper PMC10338343
± gives the standard deviation. The list shows a part of the results, in another mix than the full data. Many of these values have a large error. Some of the results follow.

Experiments:
[1] = system: MIWI (PIWIL1) piRISC loaded with L1MC piRNA (30 nt); assay: pre-steady-state target cleavage rate (min^-1); higher = faster piRNA-guided slicing of the target; conditions: guide: L1MC piRNA 5'p-UAACUAAAUACUAUGCAAGCUGUAGGUCCU;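 also: 1 nM active piRISC with 0.1 nM target library at 33 °C single turnover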
Summary of the method: (§1)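 Cleave-'n-Seq measured uncleaved targets by sequencing after a transcribed, DNA-blocked target RNA library […] was mixed with 1 nM active affinity-purified piRISC holding one synthetic guide, with or without 500 nM GTSF1 partner protein, at 33 °C in HEPES–potassium acetate buffer for 0–8 or 0–960 min. Counts were normalised to depth and to weakly complementary targets, three trials were pooled, and k3 was capped at 0.0001 min^-1. A burst-and-steady-state fit gave the pre-steady-state cleavage rate.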

[2] = system: EfPiwi piRISC loaded with L1MC piRNA (26 nt); assay: pre-steady-state target cleavage rate (min^-1); guide: L1MC piRNA 5'p-UAACUAAAUACUAUGCAAGCUGUAGG; MIWI and MILI are mouse PIWI proteins and EfPiwi is from a freshwater sponge; tags in brackets are library labels; higher = faster piRNA-guided slicing of the target
Summary of the method: as §1

[3] = auxiliary factor: none (no GTSF1)
[4] = auxiliary factor: 500 nM Ephydatia muelleri Gtsf1
[5] = auxiliary factor: none (no Gtsf1)
[6] = auxiliary factor: 500 nM mouse GTSF1

| Sequence | pre-steady-state target cleavage rate [1, 3] | pre-steady-state target cleavage rate [2, 4] | pre-steady-state target cleavage rate [2, 5] | pre-steady-state target cleavage rate [1, 6] |
| --- | --- | --- | --- | --- |
| UCCUGGAUGUCCUUGCAUACAAUUUAGUUA | 0.00119 ± 0.0043 | 0.00091 ± 0.0057 | < 0.0001 |  |
| UCCUGGAUGUCCUUGCAUAGUAUUUACAUA | 0.00207 ± 0.0035 | 0.00306 ± 0.0035 | 0.000362 ± 0.017 |  |
| UCCUGGAUGAGCUUGCCAUAGUAUUUAGUUA | 0.00194 ± 0.0043 | 0.0035 ± 0.0026 | 0.000737 ± 0.0095 |  |
| UCCUGGAUGUCGAAGCAUUGUAUUUAGUUA | 0.00042 ± 0.012 | 0.000685 ± 0.0069 | 0.000302 ± 0.018 |  |
| UCCUGGAUGUCGAUGCAUAGUAUUUGGUUA | 0.00125 ± 0.0073 | 0.00119 ± 0.0044 | 0.000189 ± 0.041 |  |
| UCCUGGAUGUGCUUGCAUAGAUAUUAGAAA | 0.000237 ± 0.014 | 0.00029 ± 0.016 | 0.000366 ± 0.018 |  |
| UCCUGGAUGAGCUUGCUUUGUAUUUAGUUA | 0.00156 ± 0.0031 | 0.000457 ± 0.011 | 0.00106 ± 0.0085 |  |
| UCCUGGAUGUGCUUGCAUACAUUUUAGUAA | 0.000661 ± 0.013 | 0.000939 ± 0.0074 | < 0.0001 |  |
| UCCUGGAUGUCGUUGUAUAGUAUUUAGUUA | 0.00237 ± 0.0027 | 0.00311 ± 0.0038 | 0.000409 ± 0.031 |  |
| UCCUGGUACAGCUUCGUUAGUAUUUAGUUA | 0.00223 ± 0.0033 | 0.000898 ± 0.0069 | 0.000546 ± 0.016 |  |
| UCCUGGAUGUCGAUGCAUAGUAAUUAGUUA | 0.00107 ± 0.0068 | 0.00212 ± 0.0026 | 0.000391 ± 0.014 |  |
| UCCUCCUACAGCUUGCAAUGUAUUUACAAA | 0.000983 ± 0.0086 | 0.00167 ± 0.006 | 0.000185 ± 0.027 |  |
| UCCUGCUACAGCUUGCAUAGUUAUUUCAAA | 0.000798 ± 0.0089 | 0.00134 ± 0.0046 | 0.000476 ± 0.016 |  |
| UCCUGGAUGUGCUAGCUUAGUAUUUAGUUA | 0.00238 ± 0.0041 | 0.0024 ± 0.0057 | 0.000337 ± 0.024 |  |
| UCCUGGAUCAGCUUCCAUAGUAUUAAGUUA | 0.000166 ± 0.021 | 0.000552 ± 0.0068 | 0.000149 ± 0.043 |  |
| UCCUGGUACACGAUGCAUAGUAUUUAGUUA | 0.00221 ± 0.0028 | 0.00161 ± 0.0035 | 0.000302 ± 0.022 |  |

Given with tabs: entries from further up.
Sequence	pre-steady-state target cleavage rate [1, 3]	pre-steady-state target cleavage rate [2, 4]	pre-steady-state target cleavage rate [2, 5]	pre-steady-state target cleavage rate [1, 6]
UCCUGGAUGUCCUUGCAUACAAUUUAGUUA	0.00119 ± 0.0043	0.00091 ± 0.0057	< 0.0001	
UCCUGGAUGUCCUUGCAUAGUAUUUACAUA	0.00207 ± 0.0035	0.00306 ± 0.0035	0.000362 ± 0.017	

More results.

| Sequence | pre-steady-state target cleavage rate [1, 3] | pre-steady-state target cleavage rate [2, 4] | pre-steady-state target cleavage rate [2, 5] | pre-steady-state target cleavage rate [1, 6] |
| --- | --- | --- | --- | --- |
| UCCUGGAUGAGCUAGGAUAGUAUUUAGUUA | 0.0019 ± 0.0039 | 0.000634 ± 0.0084 | 0.000168 ± 0.055 |  |
| UCCUGGAACAGCUUCCAAAGUAUUUAGUUA | 0.00175 ± 0.0032 | 0.00262 ± 0.0019 | 0.000486 ± 0.012 |  |
| UCCUGGAUGUCGAAGGUAAGUAUUUAGUUA | 0.000391 ± 0.017 | 0.000162 ± 0.021 | 0.000151 ± 0.052 |  |
| UCCUGCUACAGCUUGCAUACAAUUUAGAAA | 0.000326 ± 0.014 | 0.003 ± 0.0036 | 0.00021 ± 0.012 |  |
| UCCUGGAUGUCGUUGCAUAGUAUUUAAGUUA | 0.00274 ± 0.0037 | 0.00159 ± 0.006 | 0.00146 ± 0.007 |  |
| UCCUGGAUGUCGAUGCAUAGUACUUUAGUUA | 0.000645 ± 0.011 | 0.000387 ± 0.014 | 0.000394 ± 0.017 |  |
| UCCUGGAUGUCGAAGCAUAGUAUUUAGAUA | 0.00115 ± 0.0047 | 0.00115 ± 0.0053 | < 0.0001 |  |
| UCCUGGAUGUCGAUGCAUACUAUUUAGAUA | 0.000349 ± 0.014 | 0.00117 ± 0.006 | 0.000286 ± 0.022 |  |
| UCCUGGUACAGCAACCAUAGUAUUUACAAA | 0.000733 ± 0.01 | 0.000291 ± 0.014 | 0.000121 ± 0.031 |  |
| UCCUGGAUGUCGAUGCAAAGUAUUUAGAUA | 0.000517 ± 0.012 | 0.000228 ± 0.017 | 0.000517 ± 0.016 |  |
| UCCUGGAUGUCGAUGCAUAGAAUUUUGUUA |  | 0.000137 ± 0.017 | 0.00019 ± 0.03 | 0.000232 ± 0.025 |
| UCCUCCAUGAGCUUGCAUAGUAUUUUCAAA | 0.00175 ± 0.0032 | 0.00215 ± 0.0024 | 0.000225 ± 0.025 |  |
| UCCUGGUACAGCUUGGUUAGUAUUUAGAAA | 0.00172 ± 0.0043 | 0.00217 ± 0.0032 | < 0.0001 |  |
| UCCUGGAUGUCGAAGCAUAGUAGUUUAGUUA |  |  |  | 0.000187 ± 0.045 |
| UCCUGGAUGUGCUAGCAUACUAUUUAGUUA | 0.0025 ± 0.0032 | 0.000791 ± 0.011 | 0.000582 ± 0.013 |  |
